In assay [1] the target is Anxa2 (mouse (endogenous in cardiomyocytes)) (UniProt P07356). Put plainly: co-IP; mutual co-IP of endogenous proteins with anti-GRP94, anti-Anxa2 or rabbit IgG control antibody on Protein A/G magnetic beads from cardiomyocyte lysate, under hypoxia (12 hours) or tunicamycin treatment; immunoblot. For orientation: In western blotting, separated proteins are transferred to a membrane and probed.

Chains of the proteins cited; added tags and fusions are not shown. Residues count along the entry.
UniProt P07356: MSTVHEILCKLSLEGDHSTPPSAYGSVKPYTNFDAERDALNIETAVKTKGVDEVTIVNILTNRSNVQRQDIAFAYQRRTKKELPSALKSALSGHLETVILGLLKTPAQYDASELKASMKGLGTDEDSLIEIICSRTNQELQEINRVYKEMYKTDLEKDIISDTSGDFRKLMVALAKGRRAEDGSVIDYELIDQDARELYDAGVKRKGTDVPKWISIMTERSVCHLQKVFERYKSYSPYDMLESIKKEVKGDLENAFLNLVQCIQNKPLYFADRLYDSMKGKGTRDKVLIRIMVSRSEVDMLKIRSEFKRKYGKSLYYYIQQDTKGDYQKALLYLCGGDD
UniProt P08113, residues 22-802: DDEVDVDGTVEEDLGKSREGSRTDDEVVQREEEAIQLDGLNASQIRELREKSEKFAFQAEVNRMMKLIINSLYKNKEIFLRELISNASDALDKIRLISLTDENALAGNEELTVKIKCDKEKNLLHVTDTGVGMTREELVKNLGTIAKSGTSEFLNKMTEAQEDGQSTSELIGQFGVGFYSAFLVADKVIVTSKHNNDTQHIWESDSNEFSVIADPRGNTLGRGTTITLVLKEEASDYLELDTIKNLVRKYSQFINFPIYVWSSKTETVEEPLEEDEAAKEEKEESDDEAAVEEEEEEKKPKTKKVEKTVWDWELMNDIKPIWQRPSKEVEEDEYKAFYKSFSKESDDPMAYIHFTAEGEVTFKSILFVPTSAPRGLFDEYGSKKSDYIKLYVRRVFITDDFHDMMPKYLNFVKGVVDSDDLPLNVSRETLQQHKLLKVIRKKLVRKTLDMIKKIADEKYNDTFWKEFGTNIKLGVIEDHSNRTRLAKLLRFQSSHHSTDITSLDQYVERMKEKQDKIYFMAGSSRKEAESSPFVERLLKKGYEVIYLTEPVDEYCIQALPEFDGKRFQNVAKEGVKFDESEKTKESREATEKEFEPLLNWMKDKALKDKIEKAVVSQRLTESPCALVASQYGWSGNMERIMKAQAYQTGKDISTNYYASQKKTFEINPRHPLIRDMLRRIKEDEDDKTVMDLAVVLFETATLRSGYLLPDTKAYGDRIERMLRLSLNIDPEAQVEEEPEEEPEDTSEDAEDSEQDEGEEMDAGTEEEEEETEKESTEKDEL

For assay [2], the target named is glucose-regulated protein 94 (GRP94) (mouse (endogenous in cardiomyocytes)) (UniProt P08113). The assay is described as above.

Results on two substances are retold here after article PMC12513489.

These are yes or no findings as the source states them, for the method shown. In cells and extracts the contact can be indirect. Some binding calls cover weakened binding; strength is not graded here.

As to “glucose-regulated protein 94 (GRP94) (from UniProt P08113 22-802)”, in assay [1], the binding entry is on record as “binds”.
Turning to Anxa2 (from UniProt P07356 1-339), the binding entry in assay [2] is “binds”.
